Data source: PubChem BioAssay AID1259254 (NCATS, 2017)

Assay: 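Genome-wide screen for genes that prevent DNA re-replication in cancer cells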 (primary screen)
System: human HCT116 colorectal cancer cells
Knock-down reagent: single siRNA against human genes
Duration: 3 days
Detection: 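Nuclei stained with Hoechst and imaged; cell-cycle phase assigned by DNA content; G2 share scaled per plate, non-targeting siRNA 0%, GMNN siRNA 100%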
Scale: G2 robust z-score and G2 cells, % of GMNN control: higher = more G2 cells, more excess DNA replication
Call rule: 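An siRNA counts as active if its G2 robust z-score lies at least 5 MADs above the screen median; here such calls match roughly 38% of GMNN control or more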
In all, the deposit lists about 59,000 reagents; below is a part drawn at random. About 1,550 of them (2.6%) were called active. 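G2 share is only a proxy for re-replication; each gene was hit by three separate siRNAs, and active genes were retested.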 Entries without a mark were called inactive. The numbers tell different reagents against one gene apart. Not all columns of the deposit are shown. Not given: the amount of reagent.

CBARP #1
- G2 robust z-score: 0.148
- G2 cells, % of GMNN control: 4.01

CBARP #2
- G2 robust z-score: 0.672
- G2 cells, % of GMNN control: 7.7

CBARP #3
- G2 robust z-score: 0.194
- G2 cells, % of GMNN control: 4.33

CCDC150 #1
- G2 robust z-score: -0.0024
- G2 cells, % of GMNN control: 2.95

CCDC150 #2
- G2 robust z-score: 0.194
- G2 cells, % of GMNN control: 4.33

CCDC150 #3
- G2 robust z-score: -0.661
- G2 cells, % of GMNN control: -1.68

CCL17 #1
- G2 robust z-score: -0.0954
- G2 cells, % of GMNN control: 2.3

CCL17 #2
- G2 robust z-score: 0.961
- G2 cells, % of GMNN control: 9.73

CCL17 #3
- G2 robust z-score: 2.71
- G2 cells, % of GMNN control: 22

FOXD4L6 #1
- G2 robust z-score: 0.217
- G2 cells, % of GMNN control: 4.49

FOXD4L6 #2
- G2 robust z-score: -0.319
- G2 cells, % of GMNN control: 0.72

FOXD4L6 #3
- G2 robust z-score: -0.89
- G2 cells, % of GMNN control: -3.29

The list goes on; the last 4 above are carried over.
CCL17 #3
- G2 robust z-score: 2.71
- G2 cells, % of GMNN control: 22

FOXD4L6 #1
- G2 robust z-score: 0.217
- G2 cells, % of GMNN control: 4.49

FOXD4L6 #2
- G2 robust z-score: -0.319
- G2 cells, % of GMNN control: 0.72

FOXD4L6 #3
- G2 robust z-score: -0.89
- G2 cells, % of GMNN control: -3.29

MUC5AC #1
- G2 robust z-score: 6.88 (active)
- G2 cells, % of GMNN control: 51.4

MUC5AC #2
- G2 robust z-score: -1.03
- G2 cells, % of GMNN control: -4.29

MUC5AC #3
- G2 robust z-score: 0.385
- G2 cells, % of GMNN control: 5.68

HMGB1P40 #1
- G2 robust z-score: 0.802
- G2 cells, % of GMNN control: 8.61

HMGB1P40 #2
- G2 robust z-score: -0.592
- G2 cells, % of GMNN control: -1.19

HMGB1P40 #3
- G2 robust z-score: -0.144
- G2 cells, % of GMNN control: 1.96

MTTP #1
- G2 robust z-score: -1.23
- G2 cells, % of GMNN control: -5.68

MTTP #2
- G2 robust z-score: -1.41
- G2 cells, % of GMNN control: -6.99

MTTP #3
- G2 robust z-score: -0.585
- G2 cells, % of GMNN control: -1.15

BNIP3 #1
- G2 robust z-score: 0.599
- G2 cells, % of GMNN control: 7.18

BNIP3 #2
- G2 robust z-score: -0.402
- G2 cells, % of GMNN control: 0.139

BNIP3 #3
- G2 robust z-score: -0.261
- G2 cells, % of GMNN control: 1.13

CMYA5 #1
- G2 robust z-score: -0.964
- G2 cells, % of GMNN control: -3.81

CMYA5 #2
- G2 robust z-score: 0.706
- G2 cells, % of GMNN control: 7.93

CMYA5 #3
- G2 robust z-score: 3.83
- G2 cells, % of GMNN control: 29.9

BCAS2 #1
- G2 robust z-score: -0.722
- G2 cells, % of GMNN control: -2.11

BCAS2 #2
- G2 robust z-score: -0.496
- G2 cells, % of GMNN control: -0.524

BCAS2 #3
- G2 robust z-score: 0.771
- G2 cells, % of GMNN control: 8.39
